# Results deposited as PubChem BioAssay AID743454 (Peter MacCallum Cancer Centre, 2014)
# Screen: 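Genes whose loss kills vorinostat-resistant colon cancer cells under vorinostat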 (primary screen)
# Cell system: human HCT116-VR colon cancer cells, selected for vorinostat resistance
# Reagents: siRNA pool against human genes, 40 nM siRNA pool
# Time to read-out: vorinostat for 24 h, read-out about 72 h after transfection
# Treatment: vorinostat at 2.5 µM final
# Detection: 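Cell viability by CellTiter-Fluor and caspase 3/7 activity by luminescence, each scaled to mock wells per plate, duplicates averaged, then robust z-scored over all plates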
# Scale: viability robust z-score: higher = more viable cells than screen typical; caspase robust z-score: higher = more caspase 3/7 activity than screen typical
# Hit rule: 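a knock-down is a hit when classed RV1 or RV2 for lowered viability, or CA1 or CA2 for caspase activation; those lethal without drug were dropped; hits were retested singly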
# The deposit covers about 18,000 reagents; below is a random part of them. 450 of them (2.5%) were called active. 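Single biological run; no consistent viability z cut-off exists, so the class columns, not z-scores, define the calls.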 Reagents against one gene are numbered here.
Target gene,reagent no.,viability hit class,caspase hit class,viability robust z-score,caspase robust z-score,Call
CCDC106 (coiled-coil domain containing 106),1,no change,no change,0.71,1.32,inactive
CEBPE (CCAAT enhancer binding protein epsilon),1,no change,no change,-1.34,1,inactive
TRIM21 (tripartite motif containing 21),1,no change,no change,0.07,-0.68,inactive
RNF5 (ring finger protein 5),1,no change,no change,-0.28,2.76,inactive
PIP5K1C (phosphatidylinositol-4-phosphate 5-kinase type 1 gamma),1,no change,no change,1,-0.85,inactive
TSNAXIP1 (translin associated factor X interacting protein 1),1,no change,no change,-0.3,-0.62,inactive
C1GALT1C1 (C1GALT1 specific chaperone 1),1,no change,no change,1.81,0.08,inactive
"MFSD2B (MFSD2 lysolipid transporter B, sphingolipid)",1,no change,no change,-0.75,-1.21,inactive
UGT8 (UDP glycosyltransferase 8),1,no change,no change,1.52,0.11,inactive
CTSB (cathepsin B),1,no change,no change,-1.97,0.7,inactive
MTMR10 (myotubularin related protein 10),1,no change,no change,0.74,-0.95,inactive
CDKN1A (cyclin dependent kinase inhibitor 1A),1,no change,no change,1.6,0.04,inactive
OR4K14 (olfactory receptor family 4 subfamily K member 14),1,no change,no change,0.11,-0.24,inactive
PAX4 (paired box 4),1,no change,no change,-0.02,-0.99,inactive
C11orf68 (chromosome 11 open reading frame 68),1,no change,no change,-1.58,2.83,inactive
DGCR6L (DiGeorge syndrome critical region gene 6 like),1,no change,no change,1.28,1.12,inactive
APOL6 (apolipoprotein L6),1,no change,no change,2.21,-0.45,inactive
PEX6 (peroxisomal biogenesis factor 6),1,no change,no change,-1.03,0.22,inactive
CASP4 (caspase 4),1,no change,no change,1.12,1.62,inactive
CCDC183 (coiled-coil domain containing 183),1,no change,no change,-0.21,-0.89,inactive
ITGA8 (integrin subunit alpha 8),1,no change,no change,0.38,0.48,inactive
CRYGB (crystallin gamma B),1,no change,no change,0.66,1.09,inactive
TMEM125 (transmembrane protein 125),1,no change,no change,-0.82,-1.35,inactive
DNHD1 (dynein heavy chain domain 1),1,no change,no change,0.64,-0.44,inactive
DNHD1 (dynein heavy chain domain 1),2,no change,no change,-0.99,3.34,inactive
DYNLT5 (dynein light chain Tctex-type family member 5),1,no change,no change,-1.83,3.19,inactive
"ST8SIA4 (ST8 alpha-N-acetyl-neuraminide alpha-2,8-sialyltransferase 4)",1,no change,no change,-1.25,0.88,inactive
"SEC23B (SEC23 homolog B, COPII component)",1,no change,no change,-0.63,1,inactive
ATPAF1 (ATP synthase mitochondrial F1 complex assembly factor 1),1,no change,no change,0.18,-0.05,inactive
PASD1 (PAS domain containing repressor 1),1,no change,no change,-0.15,0.48,inactive
NKRF (NFKB repressing factor),1,no change,no change,0.65,-0.06,inactive
CNTN5 (contactin 5),1,no change,no change,1.02,4.29,inactive
ACOT13 (acyl-CoA thioesterase 13),1,no change,no change,0.29,-0.84,inactive
GRAMD1B (GRAM domain containing 1B),1,no change,no change,0.28,-1.09,inactive
BEGAIN (brain enriched guanylate kinase associated),1,no change,CA1 (caspase activation),0.45,6.15,active
NHLRC4 (NHL repeat containing 4),1,no change,no change,-0.09,0.18,inactive
KIR2DL5B,1,no change,no change,-1.17,-0.21,inactive
MYOZ2 (myozenin 2),1,no change,no change,0.09,-1.11,inactive
TFDP3 (transcription factor Dp family member 3),1,no change,no change,0.28,1.66,inactive
GLIPR1L1 (GLIPR1 like 1),1,no change,no change,0.05,-0.69,inactive
ELL (elongation factor for RNA polymerase II),1,no change,no change,0.24,-0.22,inactive
KIF11 (kinesin family member 11),1,no change,no change,-4,0.59,inactive
DAPK1 (death associated protein kinase 1),1,no change,no change,0.03,-0.79,inactive
MAPK7 (mitogen-activated protein kinase 7),1,no change,no change,0.36,-0.32,inactive
SCAMP1,1,no change,no change,-0.14,-0.18,inactive
LILRA2 (leukocyte immunoglobulin like receptor A2),1,no change,no change,-0.26,0.47,inactive
MND1 (meiotic nuclear divisions 1),1,no change,no change,0.03,-1.13,inactive
GLRX (glutaredoxin),1,no change,no change,0.74,0.24,inactive
CFD (complement factor D),1,no change,no change,0,0.44,inactive
PDK4 (pyruvate dehydrogenase kinase 4),1,no change,no change,-1.19,2.46,inactive
TAC1 (tachykinin precursor 1),1,no change,no change,-0.46,1.06,inactive
SLN (sarcolipin),1,no change,no change,-0.2,-0.49,inactive
NOVA1 (NOVA alternative splicing regulator 1),1,no change,no change,0.66,1.38,inactive
CABP1 (calcium binding protein 1),1,no change,no change,-0.22,-0.66,inactive
GRIK3 (glutamate ionotropic receptor kainate type subunit 3),1,no change,no change,-0.78,0.92,inactive
EPAS1 (endothelial PAS domain protein 1),1,no change,no change,0.77,-0.26,inactive
MBNL2 (muscleblind like splicing regulator 2),1,no change,no change,0,1.21,inactive
BECN1 (beclin 1),1,no change,no change,-0.43,1.5,inactive
MBD3L1 (methyl-CpG binding domain protein 3 like 1),1,no change,no change,0.62,-0.84,inactive
RUNX2 (RUNX family transcription factor 2),1,RV2 (reduced viability),no change,-3.66,2.54,active
CHN2 (chimerin 2),1,no change,no change,-1.31,-1.04,inactive
MYT1L (myelin transcription factor 1 like),1,no change,no change,-0.12,-0.78,inactive
ACSBG1 (acyl-CoA synthetase bubblegum family member 1),1,no change,no change,0.48,-0.86,inactive
OXNAD1 (oxidoreductase NAD binding domain containing 1),1,no change,no change,0.74,-1.23,inactive
SHC1 (SHC adaptor protein 1),1,no change,no change,-1.96,0.61,inactive
RFXANK (regulatory factor X associated ankyrin containing protein),1,no change,no change,0.24,-0.07,inactive
KRT74 (keratin 74),1,no change,no change,0.8,0.7,inactive
FMNL1 (formin like 1),1,no change,no change,1.25,-0.43,inactive
"SEC22C (SEC22 homolog C, vesicle trafficking protein)",1,no change,no change,0.34,0.26,inactive
RAD51B (RAD51 paralog B),1,no change,no change,-0.82,2.34,inactive
ARMCX6 (armadillo repeat containing X-linked 6),1,no change,no change,0.63,0.01,inactive
TCOF1 (treacle ribosome biogenesis factor 1),1,no change,no change,1.08,2.52,inactive
HNF4A (hepatocyte nuclear factor 4 alpha),1,no change,no change,0.3,-0.04,inactive

12 entries from above, set out differently:
Target gene | reagent no. | viability hit class | caspase hit class | viability robust z-score | caspase robust z-score | Call
CCDC106 (coiled-coil domain containing 106) | 1 | no change | no change | 0.71 | 1.32 | inactive
CEBPE (CCAAT enhancer binding protein epsilon) | 1 | no change | no change | -1.34 | 1 | inactive
TRIM21 (tripartite motif containing 21) | 1 | no change | no change | 0.07 | -0.68 | inactive
RNF5 (ring finger protein 5) | 1 | no change | no change | -0.28 | 2.76 | inactive
PIP5K1C (phosphatidylinositol-4-phosphate 5-kinase type 1 gamma) | 1 | no change | no change | 1 | -0.85 | inactive
TSNAXIP1 (translin associated factor X interacting protein 1) | 1 | no change | no change | -0.3 | -0.62 | inactive
C1GALT1C1 (C1GALT1 specific chaperone 1) | 1 | no change | no change | 1.81 | 0.08 | inactive
MFSD2B (MFSD2 lysolipid transporter B, sphingolipid) | 1 | no change | no change | -0.75 | -1.21 | inactive
UGT8 (UDP glycosyltransferase 8) | 1 | no change | no change | 1.52 | 0.11 | inactive
CTSB (cathepsin B) | 1 | no change | no change | -1.97 | 0.7 | inactive
MTMR10 (myotubularin related protein 10) | 1 | no change | no change | 0.74 | -0.95 | inactive
CDKN1A (cyclin dependent kinase inhibitor 1A) | 1 | no change | no change | 1.6 | 0.04 | inactive
